Source: publication doi:10.1101/2020.09.25.312678
These are yes or no findings as the source states them, for the method shown. In cells and extracts the contact can be indirect. Where a sequence is shown, tags or fusion partners need not be part of it.

Target: T1, WD repeat and SOCS box containing 1 (WSB1), wild type, FLAG-tagged (UniProt Q9Y6I7)
T1 sequence: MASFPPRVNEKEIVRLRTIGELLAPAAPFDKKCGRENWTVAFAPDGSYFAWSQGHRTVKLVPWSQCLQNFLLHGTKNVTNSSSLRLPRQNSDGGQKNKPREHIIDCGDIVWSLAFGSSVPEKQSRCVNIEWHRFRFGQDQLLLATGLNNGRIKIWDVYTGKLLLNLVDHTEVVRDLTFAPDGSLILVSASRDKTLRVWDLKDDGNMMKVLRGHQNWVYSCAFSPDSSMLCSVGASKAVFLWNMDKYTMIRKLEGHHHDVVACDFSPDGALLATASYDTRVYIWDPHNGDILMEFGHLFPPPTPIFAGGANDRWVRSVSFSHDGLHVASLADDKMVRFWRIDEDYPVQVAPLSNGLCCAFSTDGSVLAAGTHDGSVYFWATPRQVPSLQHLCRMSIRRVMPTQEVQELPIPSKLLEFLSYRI
Experiment: co-IP

AXIN1 deletion mutant D5 (Δ503-862), HA-tagged (domain or fragment)
binding: no binding
